Assays:
Assay in all cases: Detection of chemical substances by delayed luminescence (DFI) of rehydrated L-dried matter
Assay type in all cases: cell-based
Conditions in all cases: ** P < 0.01
[1] = tested on: L-dried matter of Prochlorococcus sp. NIES-2885
Method: (§1) Various kinds of the L-dried matter obtained in the above-described cryo vial, and test water (water containing the chemical substances listed below at the concentrations (w/v) shown in Table 7) were prepared.
(§2) (metal mixed solution which was prepared by simulation based on formulation of a rock eluate from a core sample collected during a survey voyage of “Chikyu” by the Japan Agency for Marine-Earth Science and Technology; mainly containing lead and zinc (Yamagishi et al. Ecotoxicology (2018) 27:1303-1309)) • Copper • Zinc • Lead • Arsenic: in NIES-35, NIES-969, and NIES-2885, test water containing As(V) at 1 ppm (w/v) was also used for examination.
(§3) In a case of tests using freshwater algae, distilled water was used as the test water or control water, and in a case of tests using marine algae, filtered and sterilized seawater was used as the test water or control water.
(§4) Using a cuvette as a measurement container, 100 μL of the above-described cell suspension was dried to obtain 1 unit of the L-dried matter, and resuspended (rehydrated) in 3.5 mL of test water or control water.
(§5) After the rehydration, the L-dried matter and the test water or control water were rapidly and thoroughly mixed by pipetting to obtain a measurement sample (measurement object).
(§6) The sample was set in a weak luminescence measurement device (manufactured by Hamamatsu Photonics K.K., weak luminescence coefficient device, Type-7100). After exposure with excitation light from a light source attached to the device, delayed luminescence was measured immediately after a point of time of the rehydration (within 30 seconds), 15 minutes later, 30 minutes later, 60 minutes later, and 90 minutes later. The measurement time for each delayed luminescence was set to 10 seconds.
(§7) The sum of amounts of delayed luminescence (photon count) measured over 10 seconds was calculated and defined as the delayed fluorescence integral (DFI). In addition, for the sample after the rehydration, an absorbance at a wavelength of 600 nm with an optical path length of 1 cm was simultaneously measured. The DFI value per cell number of the L-dried matter was obtained by dividing the DFI by the value (DFI/OD600).

[2] = tested on: L-dried matter of Cyanobium sp. NIES-981
Method: as §1, §2, §3, §4, §5, §6, §7

[3] = tested on: L-dried matter of Synechococcus sp. NIES-969
Method: as §1, §2, §3, §4, §5, §6, §7

[4] = tested on: L-dried matter of Raphidocelis subcapitata NIES-35
Method: as §1, §2, §3, §4, §5, §6, §7

Which shortest detection time ([1]; Cu^2+ 1 ppm) does the source give for `[Cu+2]` [Cu^2+, Copper] here?
The shortest detection time was 0 min.

What about the shortest detection time ([2]; Cu^2+ 1 ppm) of the same compound?
The shortest detection time was 15 min.

And the shortest detection time ([3]; Cu^2+ 1 ppm)?
Its shortest detection time is 15 min.

What about the shortest detection time ([4]; Cu^2+ 1 ppm) of the same compound?
The shortest detection time was 15 min.

With `CN(C)C(=O)Nc1ccc(Cl)c(Cl)c1` [DCMU, 3-(3,4-dichlorophenyl)-1,1-dimethylurea, reference compound] as the compound, how does the shortest detection time ([1]; DCMU 1 μM) read?
Its shortest detection time is 0 min.

And the shortest detection time ([2]; DCMU 1 μM)?
The shortest detection time was 0 min.

And the shortest detection time ([3]; DCMU 1 μM)?
Its shortest detection time is 0 min.

And the shortest detection time ([4]; DCMU 1 μM)?
The shortest detection time was 15 min.

Which results are given for `NO` [HA, Hydroxylamine, reference compound]?
shortest detection time ([1]; HA 50 μM): 0 min; shortest detection time ([2]; HA 50 μM): 0 min; shortest detection time ([3]; HA 50 μM): 0 min; shortest detection time ([4]; HA 50 μM): 15 min

For `[Pb+2]` [Pb^2+, Lead], which shortest detection time ([1]; Pb^2+ 1 ppm) is on record?
The shortest detection time was 15 min.

What about the shortest detection time ([2]; Pb^2+ 1 ppm) of the same compound?
The shortest detection time was 15 min.

What about the shortest detection time ([3]; Pb^2+ 1 ppm) of the same compound?
Its shortest detection time is 15 min.

And the shortest detection time ([4]; Pb^2+ 1 ppm)?
The shortest detection time was 15 min.

`[Zn+2]` [Zn^2+, Zinc] was tested. Which shortest detection time ([1]; Zn^2+ 0.5 ppm) did it give?
Its shortest detection time is 0 min.

And the shortest detection time ([1]; Zn^2+ 1 ppm)?
The shortest detection time was 30 min.

What about the shortest detection time ([2]; Zn^2+ 0.5 ppm) of the same compound?
The shortest detection time was 15 min.

And the shortest detection time ([2]; Zn^2+ 1 ppm)?
Its shortest detection time is 15 min.

What about the shortest detection time ([3]; Zn^2+ 0.5 ppm) of the same compound?
Its shortest detection time is 15 min.

And the shortest detection time ([3]; Zn^2+ 1 ppm)?
The shortest detection time was 60 min.

What about the shortest detection time ([4]; Zn^2+ 0.5 ppm) of the same compound?
The shortest detection time was 15 min.

And the shortest detection time ([4]; Zn^2+ 1 ppm)?
The shortest detection time was 15 min.
